Experimental data reported in publication PMC6600671, “Design and Synthesis of Indoleamine 2,3-Dioxygenase 1 Inhibitors and Evaluation of Their Use as Anti-Tumor Agents” (Molecules, 2019).

Amino acid sequences for entries named in this document (tags omitted). A change or cut given only in a name is not applied to a line headed by its entry.
UniProt P48775: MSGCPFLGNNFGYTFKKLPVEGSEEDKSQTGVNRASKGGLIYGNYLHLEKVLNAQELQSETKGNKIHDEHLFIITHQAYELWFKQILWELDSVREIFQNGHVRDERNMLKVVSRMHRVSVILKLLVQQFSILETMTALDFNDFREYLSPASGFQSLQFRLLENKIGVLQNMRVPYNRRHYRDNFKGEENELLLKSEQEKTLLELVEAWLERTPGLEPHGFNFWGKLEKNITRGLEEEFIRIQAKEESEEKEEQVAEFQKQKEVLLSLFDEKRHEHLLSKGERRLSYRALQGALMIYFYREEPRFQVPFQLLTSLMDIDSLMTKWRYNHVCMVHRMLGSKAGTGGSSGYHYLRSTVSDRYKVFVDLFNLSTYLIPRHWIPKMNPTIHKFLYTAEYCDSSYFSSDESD
UniProt P14902, whole entry: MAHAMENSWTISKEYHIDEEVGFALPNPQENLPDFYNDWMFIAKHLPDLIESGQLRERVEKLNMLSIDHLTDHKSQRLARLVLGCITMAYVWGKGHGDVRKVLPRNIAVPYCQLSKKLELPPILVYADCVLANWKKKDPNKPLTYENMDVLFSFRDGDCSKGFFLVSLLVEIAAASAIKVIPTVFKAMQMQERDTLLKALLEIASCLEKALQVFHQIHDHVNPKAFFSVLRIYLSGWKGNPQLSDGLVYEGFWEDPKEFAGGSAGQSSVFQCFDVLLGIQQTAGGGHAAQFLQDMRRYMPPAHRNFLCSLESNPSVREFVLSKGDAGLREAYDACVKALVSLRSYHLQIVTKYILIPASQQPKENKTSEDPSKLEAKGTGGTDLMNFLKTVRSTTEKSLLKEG

Columns and labels:
rhTDO = rhTDO (Homo sapiens, UniProt P48775); assay: Enzyme-based TDO activity assay (kynurenine absorbance at 492 nm); assay type: biochemical; details: shown when calculated IC50 >50 μM, read-out: TDO inhibition rate (%) at 50 μM
Protocol: (§1) The compounds on IDO1 or TDO activity were determined as follows: A standard reaction mixture (100 μL) containing 100 mM potassium phosphate buffer (pH 6.5), 40 mM ascorbic acid (neutralized with NaOH), 200 μg/mL catalase, 20 μM methylene blue and 0.05 μM rhIDO1 or rhTDO was added to the solution containing the substrate L-tryptophan and the test sample at a determined concentration. […] The yellow pigment derived from kynurenine was measured at 492 nm using a SYNERGY-H1 microplate reader (Biotek Instruments, Inc., Winooski, VT, USA). IC50 was analyzed using the GraphPad Prism 8.0 software (GraphPad Software, San Diego, CA, USA).

rhIDO1 = rhIDO1 (Homo sapiens, UniProt P14902); assay: Enzyme-based IDO1 activity assay (kynurenine absorbance at 492 nm); assay type: biochemical; details: shown when calculated IC50 >50 μM, read-out: IDO inhibition rate (%) at 50 μM
Protocol: as §1

inhibition at 50 µM (rhTDO): 9.2% | inhibition at 50 µM (rhIDO1): 9.7%
Structure (SMILES): Nc1nc2ccc(OC(F)(F)F)cc2s1 [DX-01-21]
